# Measurements taken from the supplement of paper PMC10849652.
# Sequences of proteins named here, by UniProt entry; tags and fusion partners are left off. A change or cut given only in a name is not applied to a line headed by its entry.
# UniProt Q9BY27: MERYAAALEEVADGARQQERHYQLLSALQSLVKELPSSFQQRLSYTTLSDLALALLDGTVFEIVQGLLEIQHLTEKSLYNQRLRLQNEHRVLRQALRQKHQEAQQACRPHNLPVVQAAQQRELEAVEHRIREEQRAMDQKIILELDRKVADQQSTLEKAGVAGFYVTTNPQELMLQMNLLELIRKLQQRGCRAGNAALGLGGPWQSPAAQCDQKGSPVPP
# UniProt P49184: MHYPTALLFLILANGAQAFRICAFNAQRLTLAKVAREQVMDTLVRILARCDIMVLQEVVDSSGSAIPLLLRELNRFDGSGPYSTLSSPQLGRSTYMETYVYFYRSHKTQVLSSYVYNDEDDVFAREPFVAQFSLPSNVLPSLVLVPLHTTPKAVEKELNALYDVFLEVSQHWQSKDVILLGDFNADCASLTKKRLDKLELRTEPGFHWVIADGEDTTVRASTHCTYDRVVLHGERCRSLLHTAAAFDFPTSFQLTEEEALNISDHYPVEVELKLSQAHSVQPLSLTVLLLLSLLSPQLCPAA
# UniProt Q6Y2X3: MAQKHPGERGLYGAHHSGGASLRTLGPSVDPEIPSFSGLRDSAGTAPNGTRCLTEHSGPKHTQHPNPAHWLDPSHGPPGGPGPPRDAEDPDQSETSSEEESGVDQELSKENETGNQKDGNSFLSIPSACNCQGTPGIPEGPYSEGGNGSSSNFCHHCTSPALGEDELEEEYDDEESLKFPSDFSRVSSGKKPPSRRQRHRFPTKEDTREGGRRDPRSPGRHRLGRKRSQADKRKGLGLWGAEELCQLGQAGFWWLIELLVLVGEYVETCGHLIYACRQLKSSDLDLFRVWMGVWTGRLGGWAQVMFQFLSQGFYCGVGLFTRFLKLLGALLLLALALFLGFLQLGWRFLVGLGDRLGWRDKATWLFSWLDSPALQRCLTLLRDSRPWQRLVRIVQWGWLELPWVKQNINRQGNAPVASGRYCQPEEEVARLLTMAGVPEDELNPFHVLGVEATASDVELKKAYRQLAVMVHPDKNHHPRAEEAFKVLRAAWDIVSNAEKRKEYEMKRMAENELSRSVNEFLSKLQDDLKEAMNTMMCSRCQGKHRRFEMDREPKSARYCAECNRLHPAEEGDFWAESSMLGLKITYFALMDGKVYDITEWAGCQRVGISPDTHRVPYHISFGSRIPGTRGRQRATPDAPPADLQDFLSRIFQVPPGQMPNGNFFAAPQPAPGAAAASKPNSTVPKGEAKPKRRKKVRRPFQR
# UniProt P50570: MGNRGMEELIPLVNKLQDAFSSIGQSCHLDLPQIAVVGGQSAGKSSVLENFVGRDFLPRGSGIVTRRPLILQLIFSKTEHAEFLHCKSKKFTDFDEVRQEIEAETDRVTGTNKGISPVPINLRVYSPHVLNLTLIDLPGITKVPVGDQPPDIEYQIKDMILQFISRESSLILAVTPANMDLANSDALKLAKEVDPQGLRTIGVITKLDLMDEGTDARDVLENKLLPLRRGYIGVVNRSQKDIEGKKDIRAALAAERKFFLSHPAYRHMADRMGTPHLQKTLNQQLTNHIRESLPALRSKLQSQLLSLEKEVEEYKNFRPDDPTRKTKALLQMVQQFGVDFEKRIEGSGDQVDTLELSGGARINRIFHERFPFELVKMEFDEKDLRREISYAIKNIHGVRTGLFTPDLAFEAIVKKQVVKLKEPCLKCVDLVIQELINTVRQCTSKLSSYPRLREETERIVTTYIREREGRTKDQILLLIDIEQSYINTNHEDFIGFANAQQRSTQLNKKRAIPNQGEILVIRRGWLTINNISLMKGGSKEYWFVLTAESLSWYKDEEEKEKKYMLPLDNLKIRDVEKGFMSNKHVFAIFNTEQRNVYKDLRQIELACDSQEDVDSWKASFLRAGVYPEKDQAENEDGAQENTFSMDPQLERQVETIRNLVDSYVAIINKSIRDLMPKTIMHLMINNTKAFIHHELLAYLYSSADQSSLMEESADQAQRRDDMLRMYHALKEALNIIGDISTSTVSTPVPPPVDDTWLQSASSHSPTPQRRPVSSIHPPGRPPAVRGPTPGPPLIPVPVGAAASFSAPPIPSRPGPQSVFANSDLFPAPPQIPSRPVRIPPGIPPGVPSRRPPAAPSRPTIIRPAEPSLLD
# UniProt Q6P3W2: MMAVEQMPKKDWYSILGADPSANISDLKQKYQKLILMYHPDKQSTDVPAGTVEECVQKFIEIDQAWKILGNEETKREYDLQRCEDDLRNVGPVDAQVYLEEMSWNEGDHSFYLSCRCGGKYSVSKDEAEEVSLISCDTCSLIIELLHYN
# UniProt Q9UPQ8: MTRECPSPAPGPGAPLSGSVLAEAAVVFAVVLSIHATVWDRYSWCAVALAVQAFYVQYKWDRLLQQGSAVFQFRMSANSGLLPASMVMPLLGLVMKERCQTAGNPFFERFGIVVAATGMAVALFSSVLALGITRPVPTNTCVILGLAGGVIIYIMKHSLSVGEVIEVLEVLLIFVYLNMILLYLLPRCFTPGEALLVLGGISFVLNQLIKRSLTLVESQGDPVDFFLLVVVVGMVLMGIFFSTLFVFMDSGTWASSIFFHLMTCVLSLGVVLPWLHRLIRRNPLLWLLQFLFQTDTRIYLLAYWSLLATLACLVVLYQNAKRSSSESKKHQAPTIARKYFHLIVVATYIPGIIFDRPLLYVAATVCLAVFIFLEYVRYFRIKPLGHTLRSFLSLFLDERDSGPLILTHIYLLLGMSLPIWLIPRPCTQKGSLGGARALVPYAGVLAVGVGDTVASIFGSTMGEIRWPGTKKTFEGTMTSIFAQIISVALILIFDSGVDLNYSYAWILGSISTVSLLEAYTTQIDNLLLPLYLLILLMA
# UniProt Q92608: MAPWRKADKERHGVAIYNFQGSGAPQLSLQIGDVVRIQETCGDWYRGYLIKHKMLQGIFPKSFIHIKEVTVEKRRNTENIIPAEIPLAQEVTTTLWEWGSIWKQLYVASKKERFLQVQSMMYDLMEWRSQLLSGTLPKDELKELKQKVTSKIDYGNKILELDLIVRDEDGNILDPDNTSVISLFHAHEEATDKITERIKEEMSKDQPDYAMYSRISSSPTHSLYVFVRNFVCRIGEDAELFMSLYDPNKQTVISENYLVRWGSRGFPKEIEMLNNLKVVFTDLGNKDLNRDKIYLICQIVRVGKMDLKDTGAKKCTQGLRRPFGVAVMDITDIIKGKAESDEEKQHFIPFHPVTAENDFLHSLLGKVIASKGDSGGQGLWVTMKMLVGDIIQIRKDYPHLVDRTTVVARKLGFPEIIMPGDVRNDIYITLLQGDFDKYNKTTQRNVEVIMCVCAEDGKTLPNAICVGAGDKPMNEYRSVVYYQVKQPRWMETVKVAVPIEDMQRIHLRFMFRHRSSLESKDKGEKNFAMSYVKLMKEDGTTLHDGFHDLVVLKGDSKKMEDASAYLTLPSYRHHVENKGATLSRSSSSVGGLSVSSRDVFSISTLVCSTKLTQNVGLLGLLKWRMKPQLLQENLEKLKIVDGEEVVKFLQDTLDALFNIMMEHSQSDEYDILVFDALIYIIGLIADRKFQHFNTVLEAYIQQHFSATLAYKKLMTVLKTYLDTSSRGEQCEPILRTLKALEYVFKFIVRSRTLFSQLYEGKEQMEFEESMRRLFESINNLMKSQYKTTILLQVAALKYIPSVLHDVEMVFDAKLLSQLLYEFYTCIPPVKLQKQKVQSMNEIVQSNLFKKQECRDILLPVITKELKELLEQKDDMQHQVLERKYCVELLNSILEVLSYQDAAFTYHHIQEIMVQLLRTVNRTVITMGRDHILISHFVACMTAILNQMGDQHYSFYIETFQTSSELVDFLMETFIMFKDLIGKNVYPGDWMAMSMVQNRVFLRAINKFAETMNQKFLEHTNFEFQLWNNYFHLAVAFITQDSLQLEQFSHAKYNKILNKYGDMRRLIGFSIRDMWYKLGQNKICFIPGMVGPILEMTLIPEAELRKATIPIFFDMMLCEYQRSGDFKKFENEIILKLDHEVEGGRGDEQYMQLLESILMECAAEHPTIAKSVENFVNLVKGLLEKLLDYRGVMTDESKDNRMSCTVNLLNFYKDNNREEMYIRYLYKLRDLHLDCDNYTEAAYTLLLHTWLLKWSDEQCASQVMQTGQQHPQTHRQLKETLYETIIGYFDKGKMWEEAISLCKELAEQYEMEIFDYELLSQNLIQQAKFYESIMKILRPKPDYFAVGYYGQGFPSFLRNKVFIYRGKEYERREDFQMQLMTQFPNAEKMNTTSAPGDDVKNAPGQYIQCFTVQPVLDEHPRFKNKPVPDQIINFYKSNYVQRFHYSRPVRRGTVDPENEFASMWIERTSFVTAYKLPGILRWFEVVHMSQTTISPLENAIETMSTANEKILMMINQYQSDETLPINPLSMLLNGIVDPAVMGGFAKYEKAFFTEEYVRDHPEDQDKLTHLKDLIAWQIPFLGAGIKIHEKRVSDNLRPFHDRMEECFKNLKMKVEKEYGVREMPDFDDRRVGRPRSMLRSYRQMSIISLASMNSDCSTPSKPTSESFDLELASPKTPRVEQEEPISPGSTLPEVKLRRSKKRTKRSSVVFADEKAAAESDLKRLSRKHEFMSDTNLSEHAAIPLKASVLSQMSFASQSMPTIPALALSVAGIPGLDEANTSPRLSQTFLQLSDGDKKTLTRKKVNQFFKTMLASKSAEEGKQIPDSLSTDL
# UniProt Q9H3H5: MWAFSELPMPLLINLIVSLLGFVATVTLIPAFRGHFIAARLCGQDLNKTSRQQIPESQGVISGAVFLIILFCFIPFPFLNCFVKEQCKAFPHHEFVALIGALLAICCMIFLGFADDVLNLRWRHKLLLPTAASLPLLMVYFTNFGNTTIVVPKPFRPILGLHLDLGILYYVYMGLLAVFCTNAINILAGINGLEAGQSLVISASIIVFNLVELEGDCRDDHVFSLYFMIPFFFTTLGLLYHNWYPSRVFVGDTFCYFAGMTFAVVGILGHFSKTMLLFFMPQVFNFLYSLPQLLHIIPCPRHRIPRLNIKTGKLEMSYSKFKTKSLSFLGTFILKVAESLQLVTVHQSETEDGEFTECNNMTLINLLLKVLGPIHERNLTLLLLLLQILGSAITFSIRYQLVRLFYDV
# The list shows a part of the results.
# Experiments:
# Assay in all cases: log2 fold change, soluble protein after heating vs DMSO (PISA); higher = thermal stabilisation; K562 lysate, 10 uM; active = over 0.2 and 3.5 SD of the protein, either way, in both replicates (recomputed)
# [1] = compound: c1ccc([C@@H]2C[C@H]2NC2CCNCC2)cc1
# Method in brief: (§1)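 K562 pellets were dounce-homogenised in PBS pH 7.4 containing 1 mM MgCl2, and the crude extract, at 1 mg/mL protein, was exposed to 10 μM compound for 30 min. Aliquots were heated for 3 min across 48°C-58°C, pooled, brought to 0.5% NP-40 at 4°C and spun at 21,000xg for 90 min, with the supernatant taken as soluble protein. TMTpro 16plex LC-MS/MS with equalised channel sums quantified that protein. Values are log-two fold changes in thermal stability relative to solvent controls, taken from duplicates.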
# [2] = compound: Cc1sc2c(c1C)C(c1ccc(Cl)cc1)=N[C@@H](CC(=O)OC(C)(C)C)c1nnc(C)n1-2
# Method in brief: as §1
# [3] = compound: CC1=C2C(=CC=C1)N=C(N(C2=O)C3=CC=CC=C3C)CN4C=NC5=C(N=CN=C54)N
# Method in brief: as §1
# [4] = compound: C1=CC=C(C=C1)[C@H](COC2=CC3=C(C=C2)NC(=O)N3)NC(=O)C4=CC=CN(C4=O)CC5=CC(=C(C=C5)F)F
# Method in brief: as §1
# [5] = compound: CC1=C(SC2=C1C(=N[C@H](C3=NN=C(N32)C)CC(=O)N)C4=CC=C(C=C4)Cl)C
# Method in brief: as §1
target,measurement,setting,value
DGCR6L (UniProt Q9BY27),log2 fold change,[1],inactive: -0.017
DNASE1L1 (UniProt P49184),log2 fold change,[1],inactive: -0.193
DNAJC14 (UniProt Q6Y2X3),log2 fold change,[2],inactive: 0.252
DNM2 isoform 4 (UniProt P50570),log2 fold change,[2],inactive: 0.025
same,log2 fold change,[1],inactive: -0.043
DNAJB14 (UniProt H7C494),log2 fold change,[1],inactive: -0.087
DNAJC24 (UniProt Q6P3W2),log2 fold change,[3],inactive: 0.007
same,log2 fold change,[2],inactive: 0.024
same,log2 fold change,[1],inactive: 0.055
DOLK (UniProt Q9UPQ8),log2 fold change,[1],inactive: -0.038
DNPEP (UniProt B9ZVU2),log2 fold change,[2],inactive: -0.063
DOCK2 (UniProt Q92608),log2 fold change,[3],inactive: 0.004
same,log2 fold change,[2],inactive: -0.055
same,log2 fold change,[1],inactive: -0.045
DPAGT1 (UniProt Q9H3H5),log2 fold change,[4],inactive: -0.073
same,log2 fold change,[5],inactive: 0.014
same,log2 fold change,[1],inactive: -0.039

# A section of the results above:
target,measurement,setting,value
DNAJC24 (UniProt Q6P3W2),log2 fold change,[3],inactive: 0.007
same,log2 fold change,[2],inactive: 0.024
